Values from PubChem BioAssay AID1224827 (NIAID, 2016).
Assay: 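Confirm genes whose knock-down changes LPS-driven TNF promoter activity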 (follow-up of hits). Cell system: RAW264.7 G9 mouse macrophage reporter clone. Reagent: single siRNA against mouse genes, 100 nM siRNA. Timing: siRNA for 2 days, then LPS about 16 h. Conditions: bacterial lipopolysaccharide (LPS), 10 ng/ml, cells fixed after overnight (about 16 h) stimulation. Read-out: 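Imaged nuclear TNF reporter intensity, background removed, scaled per plate and to non-targeting control wells, as z-scores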. Scale: TNF reporter z-score, mean: higher = stronger Tnf promoter reporter signal. Rule for the call: 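An siRNA is called active when its mean z-score over replicates is at least +2 or at most -2; control wells get no call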.
The whole screen tested about 3,800 reagents; this is an unselected part. Of all reagents, about 2,200 (57%) got an active call. 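Active means a strong reporter change in either direction; calls are per siRNA, not per gene; qiagen siRNAs gave weaker effects.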 The numbers tell different reagents against one gene apart. Further read-outs or replicates are left out here.

TNF reporter z-score, mean, by gene symbol and reagent
Prickle3: #1 -2.3 active; #2 -3.43 active; #3 -5.41 active; #4 4.3 active; #5 3.53 active; #6 1.97 inactive
Rnh1: #1 0.835 inactive; #2 -1.26 inactive; #3 -3.23 active; #4 2.47 active; #5 0.865 inactive; #6 -2.22 active
Traf2: #1 0.947 inactive; #2 -3.48 active; #3 -5 active; #4 2.26 active; #5 0.778 inactive; #6 0.86 inactive
1700001G17Rik: #1 0.423 inactive; #2 -1.65 inactive; #3 -2.66 active; #4 4.97 active; #5 0.0848 inactive; #6 -1.86 inactive
Slc5a7: #1 1.32 inactive; #2 -2.6 active; #3 -4.87 active; #4 2.68 active; #5 -0.785 inactive; #6 -0.508 inactive
Pawr: #1 4.66 active; #2 0.772 inactive; #3 -1.21 inactive
Efna5: #1 -3.89 active; #2 -4.69 active; #3 -4.79 active; #4 1.17 inactive; #5 0.185 inactive; #6 0.0686 inactive
Ifna4: #1 0.58 inactive; #2 -3.64 active; #3 -4.25 active; #4 9.61 active; #5 -1.16 inactive; #6 -2.45 active
Moap1: #1 -0.565 inactive; #2 -3.89 active; #3 -3.62 active; #4 3.06 active; #5 2.37 active; #6 -0.713 inactive
Ucp2: #1 1.62 inactive; #2 -2.01 active; #3 -2.71 active; #4 3.85 active; #5 1.89 inactive; #6 0.419 inactive
